Assay results reported in US9517222B2, “Method for the treatment of senile dementia of the Alzheimer's type” (Phenomenome Discoveries Inc., priority 2007, dated 2016).
A unit is not stated for every read-out.

Assays:
[1] = Serum ethanolamine phospholipid ratios to PtdEt 16:0/18:0 (M01) in human cohorts
[2] = Serum ethanolamine phospholipid levels in human cohorts (dementia severity, post-mortem pathology, age) by flow-injection MS/MS
[3] = serum, females, post mortem SDAT
[4] = serum, females, post mortem control

SMILES: CC/C=C\C/C=C\C/C=C\C/C=C\C/C=C\C/C=C\CCC(=O)OC(CO/C=C\CCCCCCCCCCCCCCCC)COP(=O)(O)OCCN (centres unmarked) [Metabolite M24, Plasmenyl 18:0/22:6]
- Ratio of ethanolamine phospholipid ratios to M01 between cohorts ([1]; AD, All to CN, Male): 0.665
- Ratio of ethanolamine phospholipid ratios to M01 between cohorts ([1]; ADAS 5-19 to CN, Male): 0.763
- Ratio of ethanolamine phospholipid ratios to M01 between cohorts ([1]; ADAS 20-39 to CN, Male): 0.641
- Ratio of ethanolamine phospholipid ratios to M01 between cohorts ([1]; ADAS 40-70 to CN, Male): 0.533
- Average serum ethanolamine phospholipid ratio to M01, Mean ([1]; Cognitive Normal, Male, serum): 1.010
- Average serum ethanolamine phospholipid ratio to M01, Mean ([1]; SDAT, ADAS 5-19, Male, serum): 0.770
- Average serum ethanolamine phospholipid ratio to M01, Mean ([1]; SDAT, ADAS 20-39, Male, serum): 0.647
- Average serum ethanolamine phospholipid ratio to M01, Mean ([1]; SDAT, ADAS 40-70, Male, serum): 0.539
- Average serum ethanolamine phospholipid ratio to M01, Mean ([1]; SDAT_all, Male, serum): 0.672
- Ethanolamine Phospholipid Ratio to M01, Mean, Age Ctl, 30-39, Female ([1]; human serum, females aged 30-39): 0.955
- Ethanolamine Phospholipid Ratio to M01, Mean, Age Ctl, 40-49, Female ([1]; human serum, females aged 40-49): 0.834
- Ethanolamine Phospholipid Ratio to M01, Mean, Age Ctl, 50-59, Female ([1]; human serum, females aged 50-59): 0.882
- Ratio of Ethanolamine Phospholipid Ratio to M01, 50-59 vs. 40-49, Female ([1]; human serum, females aged 50-59 vs. females aged 40-49): 1.058
- Ethanolamine Phospholipid Ratio to M01, Mean, Age Ctl, 60-69, Female ([1]; human serum, females aged 60-69): 0.661
- Ratio of Ethanolamine Phospholipid Ratio to M01, 60-69 vs. 40-49, Female ([1]; human serum, females aged 60-69 vs. females aged 40-49): 0.793
- Ethanolamine Phospholipid Ratio to M01, Mean, Age Ctl, 70+_Female ([1]; human serum, females aged 70+): 0.814
- Ratio of Ethanolamine Phospholipid Ratio to M01, 70+ vs. 40-49, Female ([1]; human serum, females aged 70+ vs. females aged 40-49): 0.976
- Ratio of Ethanolamine Phospholipid Ratio to M01, 50-59 vs. 40-49, Male ([1]; human serum, males aged 50-59 vs. males aged 40-49): 1.300
- Ratio of Ethanolamine Phospholipid Ratio to M01, 60-69 vs. 40-49, Male ([1]; human serum, males aged 60-69 vs. males aged 40-49): 1.156
- Ratio of Ethanolamine Phospholipid Ratio to M01, 70+ vs. 40-49, Male ([1]; human serum, males aged 70+ vs. males aged 40-49): 1.319
- Ratio of ethanolamine phospholipid ratio to M01, ADAS 5-19 to CN, Female ([1]; serum, females, ADAS 5-19 vs cognitive normal): 0.811
- Ratio of ethanolamine phospholipid ratio to M01, ADAS 20-39 to 5-19, Female ([1]; serum, females, ADAS 20-39 vs ADAS 5-19): 0.925
- Ratio of ethanolamine phospholipid ratio to M01, ADAS 20-39 to CN, Female ([1]; serum, females, ADAS 20-39 vs cognitive normal): 0.750
- Ratio of ethanolamine phospholipid ratio to M01, ADAS 40-70 to 5-19, Female ([1]; serum, females, ADAS 40-70 vs ADAS 5-19): 0.791
- Ratio of ethanolamine phospholipid ratio to M01, ADAS 40-70 to 20-39, Female ([1]; serum, females, ADAS 40-70 vs ADAS 20-39): 0.856
- Ratio of ethanolamine phospholipid ratio to M01, ADAS 40-70 to CN, Female ([1]; serum, females, ADAS 40-70 vs cognitive normal): 0.642
- Ethanolamine phospholipid ratio to M01, Mean, SDAT, ADAS 5-19, Female ([1]; serum, females, SDAT ADAS 5-19): 0.724
- Ethanolamine phospholipid ratio to M01, Mean, SDAT, ADAS 20-39, Female ([1]; serum, females, SDAT ADAS 20-39): 0.669
- Ethanolamine phospholipid ratio to M01, Mean, SDAT, ADAS 40-70, Female ([1]; serum, females, SDAT ADAS 40-70): 0.573
- Ratio of ethanolamine phospholipid ratio to M01, AD, All to CN, Female ([1]; serum, females, all AD vs cognitive normal): 0.729
- Ethanolamine phospholipid ratio to M01, Mean, SDAT_all Female ([1]; serum, females, all SDAT): 0.651
- Ratio of ethanolamine phospholipid ratio to M01, Autopsy AD vs. Control, Female ([1]; serum, females, autopsy AD vs post mortem control): 0.697
- Ethanolamine phospholipid ratio to M01, Mean, Cognitive Normal, Female ([1]; serum, females, cognitive normal): 0.893
- Ethanolamine phospholipid ratio to M01, Mean, Post Mortem SDAT Female [1, 3]: 0.149
- Ethanolamine phospholipid ratio to M01, Mean, Post Mortem Ctl, Female [1, 4]: 0.214
- Ratio of ethanolamine phospholipid ratio to M01, ADAS 20-39 to 5-19, Male ([1]; serum, males, SDAT ADAS 20-39 vs ADAS 5-19): 0.840
- Ratio of ethanolamine phospholipid ratio to M01, ADAS 40-70 to 5-19, Male ([1]; serum, males, SDAT ADAS 40-70 vs ADAS 5-19): 0.699
- Ratio of ethanolamine phospholipid ratio to M01, ADAS 40-70 to 20-39, Male ([1]; serum, males, SDAT ADAS 40-70 vs ADAS 20-39): 0.832
- Ethanolamine phospholipid ratio to M01, Mean, Age Ctl, 30-39, Male ([1]; serum, males, age control 30-39): 0.649
- Ethanolamine phospholipid ratio to M01, Mean, Age Ctl, 40-49, Male ([1]; serum, males, age control 40-49): 0.606
- Ethanolamine phospholipid ratio to M01, Mean, Age Ctl, 50-59, Male ([1]; serum, males, age control 50-59): 0.787
- Ethanolamine phospholipid ratio to M01, Mean, Age Ctl, 60-69, Male ([1]; serum, males, age control 60-69): 0.700
- Ethanolamine phospholipid ratio to M01, Mean, Age Ctl, 70+_Male ([1]; serum, males, age control 70+): 0.799
- Ethanolamine phospholipid ratio to M01, Mean, Post Mortem SDAT Male ([1]; serum, males, post mortem SDAT): 0.142
- Ratio of ethanolamine phospholipid ratio to M01, SDAT vs Control (post mortem, males) ([1]; serum, males, post mortem SDAT vs post mortem control): 0.588
- Ethanolamine phospholipid ratio to M01, Mean, Post Mortem Ctl, Male ([1]; serum, males, post mortem control): 0.241
- Ratio of serum levels ([2]; AD, All to CN, Male): 0.680
- Ratio of serum levels ([2]; ADAS 5-19 to CN, Male): 0.777
- Ratio of serum levels ([2]; ADAS 20-39 to 5-19, Male): 0.833
- Ratio of serum levels ([2]; ADAS 20-39 to CN, Male): 0.647
- Ratio of serum levels ([2]; ADAS 40-70 to 5-19, Male): 0.674
- Ratio of serum levels ([2]; ADAS 40-70 to 20-39, Male): 0.810
- Ratio of serum levels ([2]; ADAS 40-70 to CN, Male): 0.524
- Serum level, Mean ([2]; Cognitive Normal, Female): 0.103
- Average serum level, Mean ([2]; Cognitive Normal, Male): 0.116
- Serum level, Mean ([2]; Post Mortem Ctl, Male): 0.029
- Serum level, Mean ([2]; Post Mortem SDAT Male): 0.013
- Ratio of serum levels ([2]; Post mortem SDAT vs Control, Male): 0.448
- Serum level, Mean ([2]; SDAT, ADAS 5-19, Female): 0.079
- Average serum level, Mean ([2]; SDAT, ADAS 5-19, Male): 0.090
- Serum level, Mean ([2]; SDAT, ADAS 20-39, Female): 0.073
- Average serum level, Mean ([2]; SDAT, ADAS 20-39, Male): 0.075
- Serum level, Mean ([2]; SDAT, ADAS 40-70, Female): 0.067
- Average serum level, Mean ([2]; SDAT, ADAS 40-70, Male): 0.061
- Serum level, Mean ([2]; SDAT_all, Female): 0.073
- Average serum level, Mean ([2]; SDAT_all, Male): 0.079
- Ratio, ADAS 5-19 to CN, Female ([2]; serum level ratio, females, ADAS 5-19 vs CN): 0.768
- Ratio, ADAS 20-39 to 5-19, Female ([2]; serum level ratio, females, ADAS 20-39 vs ADAS 5-19): 0.928
- Ratio, ADAS 20-39 to CN, Female ([2]; serum level ratio, females, ADAS 20-39 vs CN): 0.713
- Ratio, ADAS 40-70 to 5-19, Female ([2]; serum level ratio, females, ADAS 40-70 vs ADAS 5-19): 0.852
- Ratio, ADAS 40-70 to 20-39, Female ([2]; serum level ratio, females, ADAS 40-70 vs ADAS 20-39): 0.918
- Ratio, ADAS 40-70 to CN, Female ([2]; serum level ratio, females, ADAS 40-70 vs CN): 0.654
- Ratio, 50-59 vs. 40-49, Female ([2]; serum level ratio, females, age 50-59 vs 40-49): 0.957
- Ratio, 60-69 vs. 40-49, Female ([2]; serum level ratio, females, age 60-69 vs 40-49): 0.871
- Ratio, 70+ vs. 40-49, Female ([2]; serum level ratio, females, age 70+ vs 40-49): 1.040
- Ratio, AD, All to CN, Female ([2]; serum level ratio, females, all AD vs cognitively normal): 0.708
- Ratio, Autopsy AD vs. Control, Female ([2]; serum level ratio, females, autopsy AD vs control): 0.496
- Ratio, 50-59 vs. 40-49, Male ([2]; serum level ratio, males, age 50-59 vs 40-49): 1.365
- Ratio, 60-69 vs. 40-49, Male ([2]; serum level ratio, males, age 60-69 vs 40-49): 1.403
- Ratio, 70+ vs. 40-49, Male ([2]; serum level ratio, males, age 70+ vs 40-49): 1.642
- Mean serum level, Age Ctl, 30-39, Female ([2]; serum, females, age 30-39): 0.102
- Mean serum level, Age Ctl, 40-49, Female ([2]; serum, females, age 40-49): 0.093
- Mean serum level, Age Ctl, 50-59, Female ([2]; serum, females, age 50-59): 0.089
- Mean serum level, Age Ctl, 60-69, Female ([2]; serum, females, age 60-69): 0.081
- Mean serum level, Age Ctl, 70+, Female ([2]; serum, females, age 70+): 0.096
- Mean serum level, Post Mortem SDAT, Female [2, 3]: 0.018
- Mean serum level, Post Mortem Ctl, Female [2, 4]: 0.035
- Mean serum level, Age Ctl, 30-39, Male ([2]; serum, males, age 30-39): 0.077
- Mean serum level, Age Ctl, 40-49, Male ([2]; serum, males, age 40-49): 0.063
- Mean serum level, Age Ctl, 50-59, Male ([2]; serum, males, age 50-59): 0.086
- Mean serum level, Age Ctl, 60-69, Male ([2]; serum, males, age 60-69): 0.088
- Mean serum level, Age Ctl, 70+, Male ([2]; serum, males, age 70+): 0.103
